The test relates to P388 leukemia ip, CD2F1 mice, survival T/C. The experiment in a line: NCI In Vivo Anticancer Drug Screen. Data for tumor model P388 Leukemia (intraperitoneal) in CD2F1 (CDF1) mice. The following applies: T/C endpoint: median survival time, higher T/C = longer survival.
The mark [1] stands for this setting: dose: 200.0 mg/kg/injection, schedule: Q01DX009 (ip), vehicle: Klucel (hydroxypropylcellulose) (HPC).
Where [2] appears, read: dose: 50.0 mg/kg/injection, schedule: Q01DX009 (ip), vehicle: saline with Tween-80.
The mark [3] stands for this setting: dose: 4.8 mg/kg/injection, schedule: Q01DX009 (ip), vehicle: saline with Tween-80.
Setting [4] is: dose: 200.0 mg/kg/injection, schedule: Q01DX009 (ip), vehicle: saline with Tween-80.
Setting [5] is: dose: 200.0 mg/kg/injection, schedule: Q01DX005 (ip), vehicle: saline with Tween-80.

Molecules are shown by their SMILES. The list is a part of this screen's results and no random one: it is rich in T/C values a quarter to a half above the control, in often repeated tests (any T/C) and in doses without a T/C. Other doses and runs of a compound stand elsewhere. T/C is the treated group as % of the vehicle group. Some entries give survivors of the animals treated and no T/C: the source files T/C as zero there, which appears to mark a toxic dose or a test without result, not a measured value. Some survivor counts are full or nearly so, which does not show that the dose was tolerated: survival well below the control is almost never listed, so the zero probably covers shortened survival too. Survivors were counted at the toxicity check, usually on the fifth day, unless a day is given; later deaths do not show. Schedule codes are those of the source, read here as Q, the interval in days (D) or hours (H), X, the number of doses. Where survival is the endpoint, the PubChem record calls one and a half times the control and up active, and a quarter to a half above the control has no call in these data; cut-offs in other NCI protocols can differ. Some entries hold several experiments; the values are given in rising order. Additions like (4×) count equal records among those shown. Some T/C values carry the count of animals alive at the toxicity check (mostly the fifth day); without a count, all were alive then.

As to `COc1ccc2cc3cc[n+](C)cc3cc2c1OC`, the survivor count is 3 of 6 (dose: 50.0 mg/kg/injection, schedule: Q01DX009 (ip), vehicle: water); 0 of 6 (dose: 100.0 mg/kg/injection, schedule: Q01DX009 (ip), vehicle: water); 0 of 6 (dose: 200.0 mg/kg/injection, schedule: Q01DX009 (ip), vehicle: water).

For the compound `CC1(C)CCCC2(C)C1CCC1(C)OC(/C(=C\CO)CO)CC12` (stereo not drawn), under setting [1], the survivor count is listed as 6 of 6.

Consider `Cn1ncc2c(N)c(C#N)c(=O)[nH]c21`, for which the survivor count is on record as 3 of 6 (dose: 50.0 mg/kg/injection, schedule: Q01DX001 (ip), vehicle: saline with Tween-80) and 3 of 6 (dose: 100.0 mg/kg/injection, schedule: Q01DX001 (ip), vehicle: saline with Tween-80).

As for `O=C1c2cccc(NCCNCCO)c2C(=O)c2cccc(NCCNCCO)c21`, the T/C (dose: 5.0 mg/kg/injection, schedule: Q01DX009 (ip), vehicle: acid diluted with saline) is 139 % of control and the T/C (dose: 10.0 mg/kg/injection, schedule: Q01DX009 (ip), vehicle: acid diluted with saline) was 141 % of control [5 of 6 alive]. The survivor count (dose: 20.0 mg/kg/injection, schedule: Q01DX009 (ip), vehicle: acid diluted with saline) is reported as 4 of 6; the survivor count (dose: 40.0 mg/kg/injection, schedule: Q01DX009 (ip), vehicle: acid diluted with saline) is listed as 3 of 6; the survivor count (dose: 80.0 mg/kg/injection, schedule: Q01DX009 (ip), vehicle: acid diluted with saline) is on record as 3 of 6; the survivor count (dose: 160.0 mg/kg/injection, schedule: Q01DX009 (ip), vehicle: acid diluted with saline) is 3 of 6.

As for `COc1ccc2c(N)c3c4ccccc4cc[n+]3cc2c1OC`, the T/C runs as follows: (dose: 12.5 mg/kg/injection, schedule: Q04DX003 (ip), vehicle: water) 128 % of control; (dose: 25.0 mg/kg/injection, schedule: Q04DX003 (ip), vehicle: water) 130 % of control. Further, the survivor count (dose: 50.0 mg/kg/injection, schedule: Q04DX003 (ip), vehicle: distilled water + Tween-80) is listed as 2 of 6; the survivor count (dose: 50.0 mg/kg/injection, schedule: Q04DX003 (ip), vehicle: water) was 2 of 6; the survivor count (dose: 100.0 mg/kg/injection, schedule: Q04DX003 (ip), vehicle: distilled water + Tween-80) is 0 of 6; the survivor count (dose: 200.0 mg/kg/injection, schedule: Q04DX003 (ip), vehicle: distilled water + Tween-80) was 0 of 6; the survivor count (dose: 400.0 mg/kg/injection, schedule: Q04DX003 (ip), vehicle: distilled water + Tween-80) is recorded as 0 of 6.

`O=[N+]([O-])c1c(N2CCN(CCO)CC2)nc2ccccn12`: the survivor count (dose: 50.0 mg/kg/injection, schedule: Q01DX009 (ip), vehicle: Klucel (hydroxypropylcellulose) (HPC)) is listed as 2 of 4; the survivor count (dose: 100.0 mg/kg/injection, schedule: Q01DX009 (ip), vehicle: Klucel (hydroxypropylcellulose) (HPC)) is on record as 0 of 6; the survivor count under setting [1] is reported as 0 of 6.

As for `CCOC(=O)NNc1nc(-c2ccccc2)nc2nonc12`, the survivor count under setting [2] was 6 of 6.

For `Cn1cc(N=P(c2ccccc2)(c2ccccc2)c2ccccc2)c(=O)n(C)c1=O`, the survivor count was 1 of 6 (dose: 120.0 mg/kg/injection, schedule: Q01DX005 (ip), vehicle: Klucel (hydroxypropylcellulose) (HPC)) and 1 of 6 (dose: 240.0 mg/kg/injection, schedule: Q01DX005 (ip), vehicle: Klucel (hydroxypropylcellulose) (HPC)).

Consider `COc1cc(C2c3cc4c(cc3CC3COC(=O)C32)OCO4)cc(OC)c1O` (stereo not drawn), for which the T/C reads like this: (dose: 2.1 mg/kg/injection, schedule: Q01DX009 (ip), vehicle: saline with Tween-80) 132 % of control; under setting [3], 125 % of control. Also, the survivor count is, setting by setting: under setting [3], 3 of 4; (dose: 7.2 mg/kg/injection, schedule: Q01DX009 (ip), vehicle: saline with Tween-80) 4 of 4; (dose: 11.0 mg/kg/injection, schedule: Q01DX009 (ip), vehicle: saline with Tween-80) 4 of 4; (dose: 67.0 mg/kg/injection, schedule: Q01DX009 (ip), vehicle: saline with Tween-80) 1 of 4.

Consider `C=C1C(=O)OC2/C=C(\C)CC/C=C(/C)CC(OC(=O)/C(=C/CO)CO)C12` (stereo not drawn), for which the T/C (dose: 20.0 mg/kg/injection, schedule: Q01DX009 (ip), vehicle: Klucel (hydroxypropylcellulose) (HPC)) is 140 % of control. The survivor count (dose: 80.0 mg/kg/injection, schedule: Q01DX009 (ip), vehicle: Klucel (hydroxypropylcellulose) (HPC)) was 0 of 6.

For `NC(=S)c1nn(C2OC(CO)C(O)C2O)c2ncnc(N)c12` (stereo not drawn), the T/C by setting is: (dose: 1.9 mg/kg/injection, schedule: Q01DX009 (ip), vehicle: saline) 135 % of control; (dose: 3.0 mg/kg/injection, schedule: Q01DX009 (ip), vehicle: saline) 136 % of control; (dose: 4.5 mg/kg/injection, schedule: Q01DX009 (ip), vehicle: saline) 137 % of control.

For the compound `CCOC(=O)C1C2(C(C)=O)C(C)=Nc3c(C#N)cnn3C12C(=O)OCC` (stereo not drawn), the survivor count (dose: 50.0 mg/kg/injection, schedule: Q01DX005 (ip), vehicle: saline with Tween-80) is listed as 6 of 6.

Turning to `CCN(CC)CCC(O)(c1ccc2c(c1)OCO2)c1cc(OC)c(OC)c(OC)c1` (stereo not drawn), the survivor count (dose: 200.0 mg/kg/injection, schedule: Q01DX005 (ip), vehicle: Klucel (hydroxypropylcellulose) (HPC)) is listed as 6 of 6.

Take `CCCCOCN(CCc1ccccc1)COCCCC`: the T/C was 133 % of control under setting [2]; 133 and 149 % of control (dose: 100.0 mg/kg/injection, schedule: Q01DX009 (ip), vehicle: saline with Tween-80); 125 % of control under setting [4]. For the setting “dose: 400.0 mg/kg/injection, schedule: Q01DX009 (ip), vehicle: saline with Tween-80”, the survivor count was 3 of 6.

For the compound `CC1CCCN(CC(O)CN2C[C@@H](C)N(CC(O)CN3CCCC(C)C3)[C@H](C)C2)C1` (stereo partly drawn), the survivor count is 2 of 6 (dose: 100.0 mg/kg/injection, schedule: Q01DX005 (ip), vehicle: saline with Tween-80) and 0 of 6 under setting [5].

With `CCOC(=O)C[N+]12CCC34c5cc(OC)c(OC)cc5N5C(=O)CC6OCC=C(C1)C(CC32)C6C54` (stereo not drawn), the T/C was 101, 110 (2×), 111, 123 % of control (dose: 6.25 mg/kg/injection, schedule: Q01DX009 (ip), vehicle: saline with Tween-80) and 101, 103, 109, 113, 119 % of control (dose: 12.5 mg/kg/injection, schedule: Q01DX009 (ip), vehicle: saline with Tween-80). Moreover, the survivor count under setting [4] is listed as 3 of 6.

As to `CS/C(C#N)=C(\C#N)SC`, the survivor count under setting [5] was 1 of 5.

These data come from PubChem BioAssay AID330 (DTP/NCI, 2004).
